Experimental data published in patent US20260034135A1, “USE OF N6-BENZYLAMINOPURINE AS AN APPETITE SUPPRESSANT” (THE GOVERNING COUNCIL OF THE UNIVERSITY OF TORONTO, priority 2022, published 2026).

Assay: BAP in the drinking water in CD-1 mice: body weight and water intake
Format: in vivo
Experimental: All protocols using mice were approved by the University Animal Care Committee of the University of Toronto and were performed in accordance with the Canadian Council on Animal Care. Animal experiments were performed in three separate animal facilities: Medical Sciences Building (MSB), Centre for Cellular and Biomolecular Research (CCBR) and the Biological Sciences Facility (BSF) due to ongoing construction and housing changes. Facilities and dates are indicated in each experimental cohort. N6-benzylaminopurine (BAP; also called N6-benzyladenine) was obtained from Sigma (B3408, cell culture grade in powder form; CAS number 1214-39-7). Male and female CD-1 mice aged 6-7 weeks were acquired from Charles Rivers and acclimated on a chow diet for one week prior to experimentation. Mice were then weight-matched and placed on either a 60% high fat diet (HFD) or sucrose-matched control diet for 4 weeks (from Research Diets: 60% HFD D12492 and the sucrose-matched control diet […]). After 3 weeks on the diet, mice were acclimated for one week to the drinking apparatus, a 50 mL canonical tube with a drinking tube. After 4 weeks on the diet, the mice were again weight-matched and randomly assigned to either the control or BAP group. […] RNA was isolated from the collected hypothalamic and used to quantify gene expression via qRT-PCR.

SMILES: c1ccc(CNc2ncnc3nc[nH]c23)cc1 [BAP, N6-benzylaminopurine]
- water (solution) intake vs control (female CD-1, regardless of diet, 10 mM BAP in drinking water with erythritol): drink significantly less
- water intake vs control (male CD-1, regardless of diet, 10 mM BAP in drinking water with 2% erythritol): drink less water
